Some of the results follow. Repeats are few or missing, and single values can be far off.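 Imaging used 1,536-well plates; nuclei positive for cleaved PARP by antibody were divided by total DNA-stained nuclei to yield the apoptosis fraction. Doses for screening kept most cells viable, and cell lines differ markedly in resting and induced cleaved-PARP levels.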
Key:
Experiment in all cases: cleaved PARP positive nuclei fraction relative to DMSO control; melanoma cells; higher = more apoptosis
Conditions in all cases: library dose: low library concentration; 72 h
MZ2-MEL = tested on: MZ2-MEL
MeWo = tested on: MeWo
RPMI7951 = tested on: RPMI7951
RVH-421 = tested on: RVH-421
SkMel28 = tested on: SkMel28
SkMel30 = tested on: SkMel30
UACC62 = tested on: UACC62
WM115 = tested on: WM115
WM1716 = tested on: WM1716
WM1745 = tested on: WM1745
WM3526 = tested on: WM3526
WM3619 = tested on: WM3619
WM451Lu = tested on: WM451Lu
SkMel2 = tested on: SkMel2
SkMel5 = tested on: SkMel5
UACC257 = tested on: UACC257

Row | Structure (SMILES) | cleaved PARP positive nuclei fraction (MZ2-MEL) [%] | cleaved PARP positive nuclei fraction (MeWo) [%] | cleaved PARP positive nuclei fraction (RPMI7951) [%] | cleaved PARP positive nuclei fraction (RVH-421) [%] | cleaved PARP positive nuclei fraction (SkMel28) [%] | cleaved PARP positive nuclei fraction (SkMel30) [%] | cleaved PARP positive nuclei fraction (UACC62) [%] | cleaved PARP positive nuclei fraction (WM115) [%] | cleaved PARP positive nuclei fraction (WM1716) [%] | cleaved PARP positive nuclei fraction (WM1745) [%] | cleaved PARP positive nuclei fraction (WM3526) [%] | cleaved PARP positive nuclei fraction (WM3619) [%] | cleaved PARP positive nuclei fraction (WM451Lu) [%] | cleaved PARP positive nuclei fraction (SkMel2) [%] | cleaved PARP positive nuclei fraction (SkMel5) [%] | cleaved PARP positive nuclei fraction (UACC257) [%]
1 | CO[C@H]1C[C@@H]2CC[C@@H](C)[C@@](O)(O2)C(=O)C(=O)N2CCCC[C@H]2C(=O)O[C@H]([C@H](C)C[C@@H]2CC[C@@H](OCCO)[C@H](OC)C2)CC(=O)[C@H](C)/C=C(\C)[C@@H](O)[C@@H](OC)C(=O)[C@H](C)C[C@H](C)/C=C/C=C/C=C/1C [everolimus] + Clc1ccc(Nc2nnc(Cc3ccncc3)c3ccccc23)cc1 [vatalanib] (first compound 0.02 µM, partner dose 2 µM) | 64 | 172 | 162 | 142 | 142 | 188 | 285 | 125 | 110 | 127 | 68.3 | 134 | 24.2 |  |  | 
2 | C[C@@H](Oc1cc(-c2cnn(C3CCNCC3)c2)cnc1N)c1c(Cl)ccc(F)c1Cl [Crizotinib] + CO[C@H]1C[C@@H]2CC[C@@H](C)[C@@](O)(O2)C(=O)C(=O)N2CCCC[C@H]2C(=O)O[C@H]([C@H](C)C[C@@H]2CC[C@@H](OCCO)[C@H](OC)C2)CC(=O)[C@H](C)/C=C(\C)[C@@H](O)[C@@H](OC)C(=O)[C@H](C)C[C@H](C)/C=C/C=C/C=C/1C [everolimus] (first compound 0.2 µM, partner dose 0.02 µM) | 71.4 | 74.4 | 124 | 293 | 212 | 130 | 236 | 141 | 189 | 107 | 119 | 122 | 288 |  |  | 
3 | C[C@@H](Oc1cc(-c2cnn(C3CCNCC3)c2)cnc1N)c1c(Cl)ccc(F)c1Cl [Crizotinib] + CNC(=O)c1cc(Oc2ccc(NC(=O)Nc3ccc(Cl)c(C(F)(F)F)c3)cc2)ccn1 [sorafenib] (first compound 0.2 µM, partner dose 0.4 µM) | 35.7 | 72.8 | 139 | 205 | 87.7 | 159 | 27.1 | 109 | 29.6 | 103 | 69.7 | 92.8 | 79.8 |  |  | 
4 | CS(=O)(=O)CCNCc1ccc(-c2ccc3ncnc(Nc4ccc(OCc5cccc(F)c5)c(Cl)c4)c3c2)o1 [lapatinib] + Nc1cccc2c1CN(C1CCC(=O)NC1=O)C2=O [lenalidomide] (first compound 0.8 µM, partner dose 1 µM) |  | 85.5 | 254 | 117 | 41.3 | 90.4 | 66 | 98.2 | 42.6 | 115 | 51.9 | 92.4 | 82 | 49.6 |  | 
5 | CC(C)C[C@H](NC(=O)[C@H](Cc1ccccc1)NC(=O)c1cnccn1)B(O)O [Bortezomib] + CC1(C)NC(=O)N(c2ccc([N+](=O)[O-])c(C(F)(F)F)c2)C1=O [nilutamide] (first compound 0.001 µM, partner dose 1 µM) |  | 108 | 62.4 | 241 | 49.3 | 50.9 | 57.1 | 43.7 | 541 | 132 | 66.4 | 438 | 127 | 66.5 | 109 | 75.3
6 | C[C@@H](Oc1cc(-c2cnn(C3CCNCC3)c2)cnc1N)c1c(Cl)ccc(F)c1Cl [Crizotinib] + COCC[n+]1c2c(n(Cc3cnccn3)c1C)C(=O)c1ccccc1C2=O [YM155] (first compound 0.2 µM, partner dose 0.0004 µM) |  | 23.8 | 110 | 74.2 | 40.3 | 64 | 79.1 | 115 | 122 | 103 | 78.1 | 85.7 | 98.1 |  |  | 
7 | Nc1ccn([C@@H]2O[C@H](CO)[C@@H](O)C2(F)F)c(=O)n1 [gemcitabine] + O=C(Nc1ccccc1)c1cc([N+](=O)[O-])ccc1Cl [GW9662] (first compound 0.0004 µM, partner dose 2 µM) |  | 33.6 | 91.3 | 76.6 | 26.8 | 136 | 105 | 111 | 34 | 116 | 90.1 | 129 | 62.8 |  | 78.1 | 153
8 | CCCS(=O)(=O)Nc1ccc(F)c(C(=O)c2c[nH]c3ncc(Cl)cc23)c1F + OCc1c[nH]c2ccccc12 [Indole-3-carbinol] (first compound 0.08 µM, partner dose 0.8 µM) |  | 66.1 | 44.1 | 83.3 | 164 | 91.5 | 170 | 92.2 | 30.7 | 88 | 86 | 108 | 177 | 94.5 |  | 
9 | CCCS(=O)(=O)Nc1ccc(F)c(C(=O)c2c[nH]c3ncc(Cl)cc23)c1F + Cc1cc(N2CCOCC2)cc2[nH]c(-c3c(NC[C@@H](O)c4cccc(Cl)c4)cc[nH]c3=O)nc12 [BMS536924] (first compound 0.08 µM, partner dose 0.2 µM) |  | 213 | 160 | 183 | 35.4 | 158 | 125 | 242 | 87 | 115 | 102 | 103 | 33.7 |  | 76.1 | 41.5

Copied from the list:
cleaved PARP positive nuclei fraction (WM3619) [%] with CCCS(=O)(=O)Nc1ccc(F)c(C(=O)c2c[nH]c3ncc(Cl)cc23)c1F + OCc1c[nH]c2ccccc12 [Indole-3-carbinol] (first compound 0.08 µM, partner dose 0.8 µM) is entered as 108
cleaved PARP positive nuclei fraction (WM3619) [%] with CS(=O)(=O)CCNCc1ccc(-c2ccc3ncnc(Nc4ccc(OCc5cccc(F)c5)c(Cl)c4)c3c2)o1 [lapatinib] + Nc1cccc2c1CN(C1CCC(=O)NC1=O)C2=O [lenalidomide] (first compound 0.8 µM, partner dose 1 µM) is entered as 92.4
